The values that follow come from PubChem BioAssay AID493014 (National Center for Advancing Translational Sciences (NCATS), 2011).

Structures are written as SMILES. The list shows a part of the results. These are further read-outs of the screen, such as a control signal, another cell line or another target. No call is given for them. Most of these compounds were active or inconclusive in the main read-out, so they are no random draw. Words in brackets tell the shape of the fitted curve; partial curves, single points and poor fits give uncertain potencies.

The experiment can be described thus: qHTS Assay to Find Inhibitors of Chronic Active B-Cell Receptor Signaling. Particulars: ABC-DLBCL IkBa-CBG/CBR reporter, luminescence ratio (green luciferase fused to IkBa over red control in TMD8 lymphoma cells), 4 h. Put shortly: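 TMD8 ABC-DLBCL cells carrying doxycycline-inducible green luciferase fused to IkappaBalpha plus unfused red luciferase were exposed to compounds (up to 46 uM) for 4 hrs at 37C. Activity came from the overlap-corrected green/red luminescence ratio.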

The mark [1] stands for this setting: measured here: CBR red luminescence, cell number.
Setting [2] is: measured here: IkBa-CBG green luminescence.

As to `Cc1nc(NC(=O)CCc2ccccc2)ccc1Br`, the AC50 under setting [1] was 7.31 µM [falling, partial curve, poor fit].

`CN(Cc1ccccc1F)C(=O)c1sccc1-c1ccccc1`: the AC50 under setting [1] was 35.5 µM [falling, partial curve, poor fit].

Take `NCCCn1c(C(=O)c2ccc(Cl)cc2)c2ccc(C(F)(F)F)cc2[n+]1[O-]`: the AC50 under setting [1] was 25.9 µM [falling, single point].

As to `CCC1(CC)NC(=O)NC1=O`, the AC50 under setting [1] was 6.51 µM [falling, single point].

Take `Cc1cc(C(=O)N/N=C/c2cccs2)n[nH]1`: the AC50 under setting [1] was 11.2 µM [falling, partial curve].

`N#C/C(=C(/O)C(Cl)c1ccccc1)c1nc2ccccc2s1` (stereo not drawn): the AC50 under setting [1] is 4.11 µM [falling, partial curve, poor fit].

On to `O=C(COc1ccc(S(=O)(=O)NC2CCCCC2)cc1)N1CCN(c2cccc(Cl)c2)CC1`, for which the AC50 under setting [1] was 0.461 µM [falling, single point].

With `Cc1cc(=O)oc(C)c1C(=O)NC12CC3CC(CC(C3)C1)C2`, the AC50 under setting [1] was 0.1 µM [rising, full curve].

For the compound `O=C(Nc1ccc(N2CCCCC2)cc1)c1ccc(F)cc1F`, the AC50 under setting [1] was 10 µM [falling, partial curve, poor fit].

In the case of `Cc1cccc(NC(=O)CSc2nc3c(oc4ccccc43)c(=O)n2-c2ccccc2)c1`, the AC50 under setting [1] is 16.4 µM [rising, partial curve].

As for `Cc1ccc(C(=O)/C=C2\NCC(C)NC2=O)cc1` (stereo not drawn), the AC50 under setting [1] is 15.8 µM [falling, partial curve].

Regarding `Cc1nn(C)c(C)c1/C=N/NC(=O)CCn1cc([N+](=O)[O-])cn1`, the AC50 under setting [1] is 0.326 µM [rising, full curve, poor fit].

For the compound `CC(Oc1ccccc1)C(=O)Nc1cccc(NC(=O)c2ccco2)c1` (stereo not drawn), the AC50 under setting [1] was 2.82 µM [falling, partial curve].

Regarding `CC(C)=C1C2CCC1C1C(=O)N(NC(=O)COc3ccc(Cl)c(C)c3)C(=O)C21` (stereo not drawn), the AC50 under setting [1] was 4.61 µM [falling, single point].

`Cc1ccn2cc(-c3cc4ccccc4oc3=O)nc2c1`: the AC50 under setting [1] was 1.78 µM [falling, full curve].

As for `O=C1S/C(=C\c2cccs2)C(=O)N1c1ccc(O)cc1`, the AC50 under setting [1] is 11.2 µM [falling, partial curve].

Consider `O=C(Nc1cccnc1)c1cc(-c2cccs2)on1`, for which the AC50 under setting [1] is 3.55 µM [falling, partial curve, poor fit].

As for `COc1ccc2nc(N3C(=O)C(O)=C(C(=O)c4ccco4)C3c3ccc(C)o3)sc2c1` (stereo not drawn), the half-maximal activity concentration (AC50) under setting [1] was 3.26 µM [rising, single point].

Take `COc1ccc(/C=C/C(=O)Nc2cccc(N3CCOCC3)c2)cc1OC`: the AC50 under setting [1] was 20.6 µM [falling, partial curve, poor fit].

As to `CCCCOc1ccc(C(=O)NNC(=O)C2C3C=CC(C3)C2C(=O)O)cc1` (stereo not drawn), under setting [1], the AC50 was 2.24 µM [falling, full curve].

With `COc1cc(C2Nc3ccccc3C(=O)N2c2ccc(Cl)cc2)c(Cl)cc1OCC(=O)O` (stereo not drawn), the AC50 is, setting by setting: under setting [1], 2.59 µM [rising, full curve]; under setting [2], 16.4 µM [falling, partial curve].

As for `Cc1ccccc1C1CC(=O)NC2=C1C(=O)CCC2` (stereo not drawn), the AC50 under setting [1] was 17.8 µM [falling, single point].

Take `CC12CCC(=O)N1C(C(=O)Nc1ccc(F)c(Cl)c1)CS2` (stereo not drawn): under setting [1], the half-maximal activity concentration (AC50) was 18.4 µM [falling, single point].

Turning to `CCCOc1ccccc1N/C(=N/c1nc(C)cc(C)n1)NC(=O)Nc1ccc(Cl)cc1`, the AC50 under setting [1] was 2.24 µM [rising, full curve, poor fit].

`CCCCN(C(=O)c1cccc2c(=O)c(C)c(-c3ccccc3)oc12)c1ccccc1`: under setting [1], the AC50 was 25.9 µM [falling, partial curve, poor fit].

Regarding `COc1ccc(NC(=O)c2cc(-c3ccccc3OC)on2)cc1`, the AC50 under setting [2] was 35.5 µM [falling, single point].

Turning to `Cc1cccc(Cn2c(N3CCc4ccccc4C3)nc3c2c(=O)[nH]c(=O)n3C)c1`, the AC50 under setting [1] is 29.1 µM [rising, single point].

Turning to `O=C(Nc1ccc(N2CCOCC2)cc1)c1cnccn1`, the AC50 under setting [1] is 7.94 µM [falling, partial curve].

Turning to `CN(C(=O)COC(=O)C(Cc1ccccc1)NC(=O)c1ccccc1)c1ccccc1` (stereo not drawn), under setting [1], the AC50 is 2.31 µM [falling, partial curve, poor fit].

For `COc1ccc(-n2c(CN3CCC(C(N)=O)CC3)nc3ccc([N+](=O)[O-])cc3c2=O)c(OC)c1`, the AC50 under setting [1] was 22.4 µM [falling, partial curve, poor fit].

Turning to `CCc1cc2c(=O)c(-c3cscn3)coc2c(CN(C)C)c1O`, the AC50 under setting [1] is 3.66 µM [falling, single point].

Consider `O=C(/C=C/Nc1ccc(F)cc1Br)c1ccccc1`, for which the concentration at half-maximal activity (AC50) under setting [1] was 5.17 µM [falling, partial curve].

Turning to `Brc1ccc(-c2nnc(-c3cccc(Br)c3)o2)cc1`, the AC50 under setting [1] was 1.12 µM [rising, full curve].

With `COc1ccc(-c2cc(C(F)F)n3ncc(C(=O)Nc4cc(C)on4)c3n2)cc1`, the AC50 under setting [1] is 35.5 µM [falling, single point].

Take `COc1cccc(/C=N/NC(=O)c2cc3c(OC)ccc(OC)c3[nH]2)c1O`: the AC50 under setting [2] is 3.55 µM [falling, single point].

In the case of `O=C(NNC(=S)NC(=O)c1ccccc1[N+](=O)[O-])c1ccccc1`, the AC50 under setting [1] was 0.146 µM [falling, full curve].

Regarding `CC(=O)c1c(C)[nH]c(C(=O)OCC(=O)NCCc2ccc(Cl)cc2)c1C`, the AC50 under setting [1] is 6.51 µM [rising, single point].

Regarding `COc1ccc([N+](=O)[O-])cc1NC1CCCCC1`, the AC50 under setting [1] is 15.8 µM [rising, single point].

Regarding `Cc1cc(Sc2nnc(N)s2)c2ccccc2n1`, the AC50 under setting [1] is 0.316 µM [falling, full curve, poor fit].

As to `COC(=O)c1ccc(NC(=O)CSc2nc(=O)n(Cc3ccco3)c3c2CCC3)cc1`, the AC50 was 17.8 µM [falling, partial curve, poor fit] under setting [1] and 7.94 µM [rising, partial curve, poor fit] under setting [2].

Regarding `CN(Cc1cccc(F)c1)C(=O)c1ccc(NS(=O)(=O)c2ccc3[nH]c(=O)[nH]c3c2)cc1`, the AC50 under setting [1] is 1.16 µM [falling, partial curve, poor fit].

What is called AC50 is the concentration giving half of the maximal activity seen.
